These are yes or no findings as the source states them, for the method shown. Binding seen in cells or lysates may run through a third protein. Some results given as binding are weak or reduced against the parent protein; the word gives no strength.
T1: PP5 (human (endogenous in HEK293)) (UniProt P53041)
T1 sequence: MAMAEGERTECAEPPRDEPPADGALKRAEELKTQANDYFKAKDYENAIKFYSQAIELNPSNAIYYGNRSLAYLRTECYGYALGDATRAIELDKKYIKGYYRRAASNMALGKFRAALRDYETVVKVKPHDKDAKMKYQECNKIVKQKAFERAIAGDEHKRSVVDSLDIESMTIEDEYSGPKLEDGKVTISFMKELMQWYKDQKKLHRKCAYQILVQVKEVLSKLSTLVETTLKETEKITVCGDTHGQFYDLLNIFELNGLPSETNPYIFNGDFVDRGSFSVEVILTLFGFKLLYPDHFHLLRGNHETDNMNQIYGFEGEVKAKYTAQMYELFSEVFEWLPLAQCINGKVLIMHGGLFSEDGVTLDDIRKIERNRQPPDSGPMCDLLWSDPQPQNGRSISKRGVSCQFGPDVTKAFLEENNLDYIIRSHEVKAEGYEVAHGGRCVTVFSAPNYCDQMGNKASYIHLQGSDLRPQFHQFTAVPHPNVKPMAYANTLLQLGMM


biological target: T1, PP5 (human (endogenous in HEK293)); experiment: co-IP; synthetic peptides added at 1 or 10 µM to HEK293 cells for 24 h; IP of Cdc37 from the lysate and immunoblot; binding of the peptide is read from the loss of the partner from the Cdc37 precipitate; only the binder purified

binding, binds:
LSKDGFSKSMVN (C-terminal amide) [Cdc37p4]
PSKDIFLKSMIN (C-terminal amide) [Cdc37p5]
NYSVWDHIEVSDDLSKDGFSKSMVN (C-terminal amide) [Cdc37p1]
NYSVWDHIEVDDDLSKDGFSKSMVN (C-terminal amide) [Cdc37p2]
NYSVWDHIEVEDDLSKDGFSKSMVN (C-terminal amide) [Cdc37p3]

Reference: paper PMC7024268
